Results are given in words; binding and its absence hold for the method and conditions named. Binding can be weak; no strength is given.
Assays:
[1] = target: MIF receptor CD74 ectodomain (CD74 73-232, sCD74) (UniProt P04233); experiment: SPR (BIAcore 2000)
[2] = target: MIF receptor CD74 ectodomain (CD74 73-232, sCD74) (UniProt P04233); experiment: competition binding and SPR
[3] = target: MIF receptor CD74 ectodomain (CD74 73-232, sCD74) (UniProt P04233); experiment: summary sentence of Example 1
[4] = target: MIF receptor CD74 ectodomain (CD74 73-232, sCD74) (UniProt P04233); experiment: competition binding and SPR (legend of FIG. 3)
[5] = target: MIF receptor CD74 ectodomain (CD74 73-232, sCD74) (UniProt P04233); experiment: competition binding assay on sCD74 with biotinylated human MIF as the competed ligand [panel A]
[6] = target: MIF receptor CD74 ectodomain (CD74 73-232, sCD74) (UniProt P04233); experiment: surface plasmon resonance (BIAcore), sCD74 immobilized, D-DT in five serial dilutions [panel B]

The chains behind the UniProt entries cited, without tags or fusion partners. Where a name states a change or a piece, a line headed by the entry shows the natural chain unless it says otherwise. Residues count along the entry.
UniProt P04233: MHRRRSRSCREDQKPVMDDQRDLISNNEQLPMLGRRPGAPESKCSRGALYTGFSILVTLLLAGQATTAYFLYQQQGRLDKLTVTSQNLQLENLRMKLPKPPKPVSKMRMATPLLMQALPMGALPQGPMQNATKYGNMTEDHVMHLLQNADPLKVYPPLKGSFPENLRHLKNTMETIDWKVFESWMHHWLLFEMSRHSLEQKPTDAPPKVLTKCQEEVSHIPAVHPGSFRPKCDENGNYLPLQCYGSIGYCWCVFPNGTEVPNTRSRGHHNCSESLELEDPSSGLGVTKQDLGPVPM
UniProt P30046, residues 2-118: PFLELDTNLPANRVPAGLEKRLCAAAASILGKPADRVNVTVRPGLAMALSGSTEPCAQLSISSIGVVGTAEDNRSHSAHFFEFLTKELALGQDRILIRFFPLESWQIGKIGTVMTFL

binding [1]: binds
binding [2]: binds
binding [3]: binds
binding [4]: binds
binding [5]: binds
binding [6]: binds
Substance: human D-dopachrome tautomerase (D-DT), recombinant native-sequence protein (from UniProt P30046 2-118) (ligand)

— US20140030266A1
